Source: PubChem BioAssay AID1224829 (NIAID, 2016)
Screen: 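Genes needed for LPS-driven NF-kappaB p65 nuclear entry in mouse macrophages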 (follow-up of hits). Cell system: mouse RAW264.7 G9 macrophage reporter cells. Knock-down reagent: single siRNA against mouse genes, 100 nM. Timing: 2 days of siRNA knock-down, then 40 min of LPS before fixing. Treatment: LPS (Salmonella minnesota R595) at 10 ng/ml. Measured: 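Imaging of GFP-p65 after 40 min of LPS; nuclear over perinuclear ring intensity ratio, scaled to plate median and non-targeting control wells, given as z-score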. Scale: p65 translocation z-score: higher = more nuclear NF-kappaB p65 after LPS. Rule for the call: 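An siRNA is called active when the mean z-score of its two replicates is above 2 or below -2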. Meaning of the calls: active = changed p65 translocation (either direction); inactive = no clear change.
This is a random part of about 3,800 reagents tested. 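Calls cover raised and lowered translocation; gene median uses one vendor's three siRNAs; qiagen siRNAs acted more weakly than ambion siRNAs.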 The numbers tell different reagents against one gene apart. Not all columns of the deposit are shown.

How did the screen score Ap1g1 #1, siRNA vendor or control pool ambion single siRNA?
p65 translocation z-score, replicate mean: -0.596; p65 translocation z-score, replicate 1: 2.12; call: inactive

With Ap1g1 #2, siRNA vendor or control pool ambion single siRNA, how do the results read?
p65 translocation z-score, replicate mean: -2.14; p65 translocation z-score, replicate 1: -2.22; call: active

With Ap1g1 #3, siRNA vendor or control pool ambion single siRNA, how do the results read?
p65 translocation z-score, replicate mean: -4; p65 translocation z-score, replicate 1: -4.72; call: active

What did the screen give for Ap1g1 #4, siRNA vendor or control pool qiagen single siRNA?
p65 translocation z-score, replicate mean: 1.77; p65 translocation z-score, replicate 1: 1.72; call: inactive

With Ap1g1 #5, siRNA vendor or control pool qiagen single siRNA, what does the deposit list?
p65 translocation z-score, replicate mean: -1.23; p65 translocation z-score, replicate 1: -0.733; call: inactive

With Ap1g1 #6, siRNA vendor or control pool qiagen single siRNA, what does the deposit list?
p65 translocation z-score, replicate mean: -0.714; p65 translocation z-score, replicate 1: -0.191; call: inactive

What did the screen give for Or10v5 #1, siRNA vendor or control pool ambion single siRNA?
p65 translocation z-score, replicate mean: -0.739; p65 translocation z-score, replicate 1: -1.34; call: inactive

For Or10v5 #2, siRNA vendor or control pool ambion single siRNA, how do the results read?
p65 translocation z-score, replicate mean: -1.8; p65 translocation z-score, replicate 1: -0.491; call: inactive

With Or10v5 #3, siRNA vendor or control pool ambion single siRNA, what does the deposit list?
p65 translocation z-score, replicate mean: -4.69; p65 translocation z-score, replicate 1: -6.01; call: active

Which result is listed for Or10v5 #4, siRNA vendor or control pool qiagen single siRNA?
p65 translocation z-score, replicate mean: 3.92; p65 translocation z-score, replicate 1: 1.93; call: active

What did the screen give for Or10v5 #5, siRNA vendor or control pool qiagen single siRNA?
p65 translocation z-score, replicate mean: 1.58; p65 translocation z-score, replicate 1: 0.707; call: inactive

Which result is listed for Or10v5 #6, siRNA vendor or control pool qiagen single siRNA?
p65 translocation z-score, replicate mean: -0.365; p65 translocation z-score, replicate 1: -0.285; call: inactive

Ordered by “p65 translocation z-score, replicate 1” (high to low): some entries from above.
Ap1g1 #4, siRNA vendor or control pool qiagen single siRNA | p65 translocation z-score, replicate mean: 1.77; p65 translocation z-score, replicate 1: 1.72; call: inactive
Ap1g1 #6, siRNA vendor or control pool qiagen single siRNA | p65 translocation z-score, replicate mean: -0.714; p65 translocation z-score, replicate 1: -0.191; call: inactive
Ap1g1 #5, siRNA vendor or control pool qiagen single siRNA | p65 translocation z-score, replicate mean: -1.23; p65 translocation z-score, replicate 1: -0.733; call: inactive

Continued:
For Or1q1 #1, siRNA vendor or control pool ambion single siRNA, what was measured?
p65 translocation z-score, replicate mean: -3.99; p65 translocation z-score, replicate 1: -3.95; call: active

For Or1q1 #2, siRNA vendor or control pool ambion single siRNA, how do the results read?
p65 translocation z-score, replicate mean: -0.719; p65 translocation z-score, replicate 1: -0.966; call: inactive

With Or1q1 #3, siRNA vendor or control pool ambion single siRNA, how do the results read?
p65 translocation z-score, replicate mean: -1.97; p65 translocation z-score, replicate 1: -1.97; call: inactive

How did the screen score Or1q1 #4, siRNA vendor or control pool qiagen single siRNA?
p65 translocation z-score, replicate mean: -0.35; p65 translocation z-score, replicate 1: 0.646; call: inactive

For Or1q1 #5, siRNA vendor or control pool qiagen single siRNA, how do the results read?
p65 translocation z-score, replicate mean: 0.638; p65 translocation z-score, replicate 1: -0.0147; call: inactive

What did the screen give for Or1q1 #6, siRNA vendor or control pool qiagen single siRNA?
p65 translocation z-score, replicate mean: -1.71; p65 translocation z-score, replicate 1: -2.2; call: inactive

With Or4g17 #1, siRNA vendor or control pool ambion single siRNA, what does the deposit list?
p65 translocation z-score, replicate mean: -2.59; p65 translocation z-score, replicate 1: -2.59; call: active

With Or4g17 #2, siRNA vendor or control pool ambion single siRNA, what was measured?
p65 translocation z-score, replicate mean: 0.693; p65 translocation z-score, replicate 1: 0.693; call: inactive

What is on record for Or4g17 #3, siRNA vendor or control pool ambion single siRNA?
p65 translocation z-score, replicate mean: -2.44; p65 translocation z-score, replicate 1: -3.13; call: active

With Or4g17 #4, siRNA vendor or control pool qiagen single siRNA, what was measured?
p65 translocation z-score, replicate mean: 2.17; p65 translocation z-score, replicate 1: 0.841; call: active

What did the screen give for Or4g17 #5, siRNA vendor or control pool qiagen single siRNA?
p65 translocation z-score, replicate mean: -2.02; p65 translocation z-score, replicate 1: -2.31; call: active

What is on record for Or4g17 #6, siRNA vendor or control pool qiagen single siRNA?
p65 translocation z-score, replicate mean: -2.44; p65 translocation z-score, replicate 1: -0.751; call: active

For Ptges #1, siRNA vendor or control pool ambion single siRNA, what was measured?
p65 translocation z-score, replicate mean: 0.16; p65 translocation z-score, replicate 1: 1.06; call: inactive

For Ptges #2, siRNA vendor or control pool ambion single siRNA, what was measured?
p65 translocation z-score, replicate mean: -2.86; p65 translocation z-score, replicate 1: -3.4; call: active

How did the screen score Ptges #3, siRNA vendor or control pool ambion single siRNA?
p65 translocation z-score, replicate mean: -0.966; p65 translocation z-score, replicate 1: -0.93; call: inactive

For Ptges #4, siRNA vendor or control pool qiagen single siRNA, how do the results read?
p65 translocation z-score, replicate mean: -1.05; p65 translocation z-score, replicate 1: -0.718; call: inactive

For Ptges #5, siRNA vendor or control pool qiagen single siRNA, what was measured?
p65 translocation z-score, replicate mean: -1.21; p65 translocation z-score, replicate 1: -0.41; call: inactive

How did the screen score Ptges #6, siRNA vendor or control pool qiagen single siRNA?
p65 translocation z-score, replicate mean: 0.945; p65 translocation z-score, replicate 1: 0.397; call: inactive
